# Source: patent US20140107219A1, “LOCAL ANAESTHETIC” (VITA (EUROPE) LIMITED, priority 2011, published 2014)
# Columns and labels:
# [1] = in vivo; cited from earlier work
# [2] = system: isolated sciatic nerve of the rat; assay: Evoked compound action potential (CAP) of the isolated rat sciatic nerve in a three-chamber bath (ex vivo): inhibition and recovery after washout; conditions: within the limits of 24 h
compound,measurement,setting,value
"CCN(CC)CC(=O)Nc1c(C)cccc1C [lidocaine, 2-(diethylamino)-N-(2,6-dimethylphenyl)-acetamide, reference compound]",acute LD50,[1],313 mg/kg
same,neurotoxic effect on nerve fibres,[2],no neurotoxic effect
